Results from publication doi:10.1101/822031.
Where two headings read alike, the source gives them in different places. These are yes or no findings as the source states them, for the method shown. In cells and extracts the contact can be indirect. Some results given as binding are weak or reduced against the parent protein; the word gives no strength. For some assays here: Where a sequence is shown, tags or fusion partners need not be part of it.

Chains of the proteins cited; added tags and fusions are not shown. Lines headed by an entry give the natural chain unless they say otherwise; changes in a name come on top.
UniProt P43378, whole entry, looked up, stated change not applied: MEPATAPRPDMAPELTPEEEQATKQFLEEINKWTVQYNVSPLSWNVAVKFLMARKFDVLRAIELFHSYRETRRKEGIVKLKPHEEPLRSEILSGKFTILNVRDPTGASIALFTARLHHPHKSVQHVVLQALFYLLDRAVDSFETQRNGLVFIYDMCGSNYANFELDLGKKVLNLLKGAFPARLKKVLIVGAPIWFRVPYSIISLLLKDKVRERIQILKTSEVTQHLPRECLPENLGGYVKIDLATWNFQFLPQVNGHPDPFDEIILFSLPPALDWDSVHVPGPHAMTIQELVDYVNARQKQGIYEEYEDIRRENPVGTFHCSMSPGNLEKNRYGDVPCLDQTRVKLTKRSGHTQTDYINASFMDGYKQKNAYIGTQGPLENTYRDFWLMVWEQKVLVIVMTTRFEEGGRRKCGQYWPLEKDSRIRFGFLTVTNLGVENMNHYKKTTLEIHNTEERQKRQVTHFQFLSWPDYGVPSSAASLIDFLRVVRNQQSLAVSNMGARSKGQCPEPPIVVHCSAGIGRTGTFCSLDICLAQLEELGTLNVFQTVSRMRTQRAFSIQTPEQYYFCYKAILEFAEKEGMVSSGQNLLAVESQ
UniProt Q9QUL6, whole entry: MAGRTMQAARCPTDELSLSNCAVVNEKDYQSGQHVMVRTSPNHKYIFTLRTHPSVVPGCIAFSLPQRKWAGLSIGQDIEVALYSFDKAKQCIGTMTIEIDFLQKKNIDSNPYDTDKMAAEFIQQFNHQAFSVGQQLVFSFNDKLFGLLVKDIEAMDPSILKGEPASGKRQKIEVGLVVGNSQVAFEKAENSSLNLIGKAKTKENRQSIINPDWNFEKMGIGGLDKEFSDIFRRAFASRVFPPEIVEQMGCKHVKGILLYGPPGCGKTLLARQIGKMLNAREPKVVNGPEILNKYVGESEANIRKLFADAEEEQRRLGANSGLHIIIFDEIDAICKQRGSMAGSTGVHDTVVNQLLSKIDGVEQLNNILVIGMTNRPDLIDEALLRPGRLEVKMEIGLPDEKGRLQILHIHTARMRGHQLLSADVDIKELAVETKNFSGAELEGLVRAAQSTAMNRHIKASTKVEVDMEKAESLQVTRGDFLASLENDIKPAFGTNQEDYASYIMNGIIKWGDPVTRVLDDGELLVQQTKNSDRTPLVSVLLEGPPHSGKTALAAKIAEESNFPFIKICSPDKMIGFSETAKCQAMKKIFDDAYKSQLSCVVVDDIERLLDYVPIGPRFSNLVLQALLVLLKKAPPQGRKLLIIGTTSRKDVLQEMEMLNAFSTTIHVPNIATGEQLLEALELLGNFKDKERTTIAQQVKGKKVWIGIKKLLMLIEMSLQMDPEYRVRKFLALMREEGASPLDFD

What was measured:
Test in all cases: co-IP
PTP-MEG2-D470A-GFP Q559A = PTP-MEG2-D470A-GFP Q559A (UniProt P43378)
PTP-MEG2-D470A-GFP D335A = PTP-MEG2-D470A-GFP D335A (UniProt P43378)
PTP-MEG2-D470A-GFP [1] = target: PTP-MEG2-D470A-GFP (UniProt P43378)
PTP-MEG2-D470A-GFP I519A = PTP-MEG2-D470A-GFP I519A (UniProt P43378)
PTP-MEG2-D470A-GFP G334R = PTP-MEG2-D470A-GFP G334R (UniProt P43378)
PTP-MEG2-D470A-GFP Y471F = PTP-MEG2-D470A-GFP Y471F (UniProt P43378)
PTP-MEG2-D470A-GFP Y471A = PTP-MEG2-D470A-GFP Y471A (UniProt P43378)
PTP-MEG2-D470A-GFP [2] = target: PTP-MEG2-D470A-GFP (UniProt P43378); remark: listed apart in the source

Measured: binding

NSF in PC12 cell lysate (GFP pull-down) (from UniProt Q9QUL6 1-744)
not listed: PTP-MEG2-D470A-GFP [2]
binds: all other assays above

B1: DYNAMIN2 in PC12 cell lysate (GFP pull-down) (protein, UniProt P39052 1-870)
chain: MGNRGMEELIPLVNKLQDAFSSIGQSCHLDLPQIAVVGGQSAGKSSVLENFVGRDFLPRGSGIVTRRPLILQLIFSKTEYAEFLHCKSKKFTDFDEVRQEIEAETDRVTGTNKGISPVPINLRVYSPHVLNLTLIDLPGITKVPVGDQPPDIEYQIKDMILQFISRESSLILAVTPANMDLANSDALKLAKEVDPQGLRTIGVITKLDLMDEGTDARDVLENKLLPLRRGYIGVVNRSQKDIEGRKDIRAALAAERKFFLSHPAYRHMADRMGTPHLQKTLNQQLTNHIRESLPTLRSKLQSQLLSLEKEVEEYKNFRPDDPTRKTKALLQMVQQFGVDFEKRIEGSGDQVDTLELSGGARINRIFHERFPFELVKMEFDEKDLRREISYAIKNIHGVRTGLFTPDLAFEAIVKKQVVKLKEPCLKCVDLVIQELISTVRQCTSKLSSYPRLREETERIVTTYIREREGRTKDQILLLIDIEQSYINTNHEDFIGFANAQQRSTQLNKKRAIPNQGEILVIRRGWLTINNISLMKGGSKEYWFVLTAESLSWYKDEEEKEKKYMLPLDNLKIRDVEKGFMSNKHVFAIFNTEQRNVYKDLRQIELACDSQEDVDSWKASFLRAGVYPEKDQAENEDGAQENTFSMDPQLERQVETIRNLVDSYVAIINKSIRDLMPKTIMHLMINNTKAFIHHELLAYLYSSADQSSLMEESAEQAQRRDDMLRMYHALKEALNIIGDISTSTVSTPVPPPVDDTWLQNTSSHSPTPQRRPVSSVHPPGRPPAVRGPTPGPPLIPMPVGATSSFSAPPIPSRPGPQNVFANNDPFSAPPQIPSRPARIPPGIPPGVPSRRAPAAPSRPTIIRPAEPSLLD
binds: PTP-MEG2-D470A-GFP [2]
